Measurements taken from patent US10383956B2, “Fluorescent probe for detecting dipeptidyl peptidase IV” (The University of Tokyo, priority 2014, dated 2019).

Tested on: human esophageal cancer biopsy specimens (tumor area vs non-tumor area)
Test: Imaging of human esophageal cancer biopsy specimens
Conditions: probe 50 μM; for AUC (ROC curve): biopsy specimens; for Cut-off: from ROC curve
Experimental: One biopsy sample each from a tumor area and non-tumor area were collected from patients undergoing preoperative upper endoscopy, and imaging and fluorescence intensity were measured over time after dropwise addition of various fluorescent probes (compounds 1-6).
In addition, since it was possible to gather ten or more cases for GP-HMRG (compound 1), EP-HMRG (compound 2), and PP-HMRG (compound 6), the cut-off value was calculated from the data using an ROC curve, and the sensitivity, specificity, correct diagnosis rate, positive predictive value, and negative predictive value were determined.

Row | Compound | Correct diagnosis rate (5 min) | Negative predictive value (5 min) | Positive predictive value (5 min) | Sensitivity (5 min) | Specificity (5 min) | AUC (ROC curve) (5 min) | Cut-off (5 min) | Correct diagnosis rate (10 min) | Negative predictive value (10 min) | Positive predictive value (10 min) | Sensitivity (10 min) | Specificity (10 min) | AUC (ROC curve) (10 min) | Cut-off (10 min) | Correct diagnosis rate (30 min) | Negative predictive value (30 min) | Positive predictive value (30 min) | Sensitivity (30 min) | Specificity (30 min) | AUC (ROC curve) (30 min) | other results
1 | NCC(=O)N1CCC[C@H]1C(=O)Nc1ccc2c(c1)Oc1cc(N)ccc1C21OCc2ccccc21 (stereo partly drawn) [Compound 1] | 96.8 | 100 | 93.3 | 100 | 94.1 | 0.99 | 0.54 | 96.8 | 100 | 93.3 | 100 | 94.1 | 0.98 | 1.02 | 90.3 | 93.8 | 86.7 | 92.9 | 88.2 | 0.95 | Cut-off (30 min): 2.10
2 | Nc1ccc2c(c1)Oc1cc(NC(=O)[C@@H]3CCCN3C(=O)[C@@H](N)CCC(=O)O)ccc1C21OCc2ccccc21 (stereo partly drawn) [Compound 2] | 90.5 | 97.3 | 83.8 | 96.9 | 85.4 | 0.93 | 0.37 | 89.2 | 97.2 | 81.6 | 96.9 | 83.3 | 0.93 | 0.67 | 93.2 | 97.4 | 88.6 | 96.9 | 90.5 | 0.95 | Cut-off (30 min): 1.77
3 | Nc1ccc2c(c1)Oc1cc(NC(=O)[C@@H]3CCCN3C(=O)[C@@H]3CCCN3)ccc1C21OCc2ccccc21 (stereo partly drawn) [Compound 6] | 82.1 | 72.2 | 100 | 66.7 | 100 | 0.88 | 0.54 | 89.3 | 91.7 | 87.5 | 93.3 | 84.6 | 0.94 | 0.64 | 88.5 | 90.9 | 86.7 | 92.9 | 83.3 | 0.94 | Cut-off (30 min): 1.44
